# Percent effect of library compounds

By UniProt entry, the sequences of proteins in these tests, tags left out. Residues count along the entry.
UniProt P9WPC5, whole entry: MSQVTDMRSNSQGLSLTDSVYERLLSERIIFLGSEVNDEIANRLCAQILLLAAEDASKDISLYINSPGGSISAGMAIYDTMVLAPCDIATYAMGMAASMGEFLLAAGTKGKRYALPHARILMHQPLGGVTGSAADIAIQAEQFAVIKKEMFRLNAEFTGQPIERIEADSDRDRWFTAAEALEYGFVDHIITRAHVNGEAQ
UniProt P9WPC3, whole entry partner: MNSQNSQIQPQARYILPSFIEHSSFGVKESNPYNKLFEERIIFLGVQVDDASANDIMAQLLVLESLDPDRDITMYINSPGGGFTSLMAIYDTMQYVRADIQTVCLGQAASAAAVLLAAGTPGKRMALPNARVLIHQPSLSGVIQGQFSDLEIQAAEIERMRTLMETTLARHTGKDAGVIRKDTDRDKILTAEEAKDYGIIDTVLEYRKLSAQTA
UniProt Q4DA54, 1-478: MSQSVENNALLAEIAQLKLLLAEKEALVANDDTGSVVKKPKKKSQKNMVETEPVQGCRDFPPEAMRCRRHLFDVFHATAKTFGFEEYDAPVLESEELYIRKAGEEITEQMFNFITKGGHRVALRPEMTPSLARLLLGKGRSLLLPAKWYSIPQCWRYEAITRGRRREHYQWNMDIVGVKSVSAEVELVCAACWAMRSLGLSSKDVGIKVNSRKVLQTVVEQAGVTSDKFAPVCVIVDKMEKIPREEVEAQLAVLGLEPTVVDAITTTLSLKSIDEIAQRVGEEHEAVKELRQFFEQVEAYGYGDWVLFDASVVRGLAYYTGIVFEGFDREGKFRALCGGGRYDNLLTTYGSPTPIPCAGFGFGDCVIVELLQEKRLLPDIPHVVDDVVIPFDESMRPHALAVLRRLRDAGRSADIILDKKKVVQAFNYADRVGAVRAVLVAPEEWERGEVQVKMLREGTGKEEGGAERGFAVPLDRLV
UniProt I6X8D2, whole entry: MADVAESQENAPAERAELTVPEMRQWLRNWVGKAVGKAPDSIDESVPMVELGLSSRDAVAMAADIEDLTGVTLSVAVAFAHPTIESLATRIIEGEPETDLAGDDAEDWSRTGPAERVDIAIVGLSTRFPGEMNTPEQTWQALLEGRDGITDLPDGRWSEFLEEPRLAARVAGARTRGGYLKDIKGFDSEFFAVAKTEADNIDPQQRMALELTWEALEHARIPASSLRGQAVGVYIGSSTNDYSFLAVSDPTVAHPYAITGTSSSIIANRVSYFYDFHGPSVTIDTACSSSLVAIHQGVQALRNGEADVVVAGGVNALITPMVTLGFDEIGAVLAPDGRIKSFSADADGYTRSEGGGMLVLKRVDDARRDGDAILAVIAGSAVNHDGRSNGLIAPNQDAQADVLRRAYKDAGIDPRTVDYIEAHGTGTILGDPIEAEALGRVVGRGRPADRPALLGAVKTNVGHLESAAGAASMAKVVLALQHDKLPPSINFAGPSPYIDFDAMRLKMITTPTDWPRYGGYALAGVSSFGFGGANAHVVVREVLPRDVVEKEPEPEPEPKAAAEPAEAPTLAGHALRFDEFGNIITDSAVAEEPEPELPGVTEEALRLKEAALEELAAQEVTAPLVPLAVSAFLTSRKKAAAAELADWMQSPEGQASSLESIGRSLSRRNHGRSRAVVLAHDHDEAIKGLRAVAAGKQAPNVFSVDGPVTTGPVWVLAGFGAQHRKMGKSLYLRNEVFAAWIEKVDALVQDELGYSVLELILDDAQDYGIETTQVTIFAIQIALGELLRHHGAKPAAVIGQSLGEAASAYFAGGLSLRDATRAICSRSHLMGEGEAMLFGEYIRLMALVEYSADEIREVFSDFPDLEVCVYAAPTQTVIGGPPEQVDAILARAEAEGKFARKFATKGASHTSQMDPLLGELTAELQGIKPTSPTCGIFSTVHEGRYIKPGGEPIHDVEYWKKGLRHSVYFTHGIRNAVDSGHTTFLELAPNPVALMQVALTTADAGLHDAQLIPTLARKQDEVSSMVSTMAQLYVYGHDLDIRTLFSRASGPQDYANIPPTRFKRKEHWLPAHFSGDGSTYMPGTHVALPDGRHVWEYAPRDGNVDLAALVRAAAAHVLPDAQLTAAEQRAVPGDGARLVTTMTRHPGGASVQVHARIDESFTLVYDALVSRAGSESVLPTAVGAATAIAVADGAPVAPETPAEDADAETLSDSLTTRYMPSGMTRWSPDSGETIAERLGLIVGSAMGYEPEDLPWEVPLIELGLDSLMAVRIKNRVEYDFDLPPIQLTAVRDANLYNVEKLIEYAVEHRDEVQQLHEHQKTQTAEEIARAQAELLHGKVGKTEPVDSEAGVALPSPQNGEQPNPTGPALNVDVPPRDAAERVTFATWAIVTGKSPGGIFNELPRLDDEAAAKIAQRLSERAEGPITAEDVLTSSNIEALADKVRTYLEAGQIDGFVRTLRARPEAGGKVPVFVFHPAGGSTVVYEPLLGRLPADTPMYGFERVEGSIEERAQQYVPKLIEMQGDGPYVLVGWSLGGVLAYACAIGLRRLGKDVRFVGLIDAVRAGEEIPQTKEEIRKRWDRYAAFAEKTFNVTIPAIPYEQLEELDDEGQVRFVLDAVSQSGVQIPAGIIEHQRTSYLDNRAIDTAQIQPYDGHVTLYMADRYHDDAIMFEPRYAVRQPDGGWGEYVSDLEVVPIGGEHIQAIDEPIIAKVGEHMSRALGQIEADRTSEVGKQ
UniProt Q8IDJ8, 1-583: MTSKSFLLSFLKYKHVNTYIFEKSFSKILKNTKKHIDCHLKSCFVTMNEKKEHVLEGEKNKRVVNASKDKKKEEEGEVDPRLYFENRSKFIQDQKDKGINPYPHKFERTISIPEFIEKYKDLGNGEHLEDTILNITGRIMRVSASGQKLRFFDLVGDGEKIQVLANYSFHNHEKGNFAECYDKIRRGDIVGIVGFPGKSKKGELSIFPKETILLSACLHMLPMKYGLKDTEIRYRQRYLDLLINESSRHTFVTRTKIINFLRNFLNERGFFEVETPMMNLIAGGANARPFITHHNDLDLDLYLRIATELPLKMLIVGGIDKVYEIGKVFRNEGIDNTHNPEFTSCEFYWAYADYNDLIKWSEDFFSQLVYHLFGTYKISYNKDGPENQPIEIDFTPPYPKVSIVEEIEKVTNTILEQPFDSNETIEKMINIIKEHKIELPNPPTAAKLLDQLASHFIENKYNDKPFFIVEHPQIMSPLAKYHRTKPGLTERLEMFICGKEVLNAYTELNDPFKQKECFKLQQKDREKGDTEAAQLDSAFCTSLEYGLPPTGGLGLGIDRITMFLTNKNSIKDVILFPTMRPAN

Data taken from ChEMBL document CHEMBL3988442, “University of Dundee, Small-Polar-MMV Screening Library” (2021).

The filed quantity is “Percent Effect” (%).
The record does not define 0% and 100%; most values in the screen are far below 50% and negative numbers occur (in some assays of this library far below -100).
The compounds are a random part of those screened.

ClpP1P2: 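ClpP1P2, Mycobacterium tuberculosis (UniProt P9WPC5 and UniProt P9WPC3). Protease assay of ClpP1P2, read by the AMC dye that it sets free. Compounds at 50 µM. Direction is inferred from only a few compounds that gave an IC50; most scored high, so higher reads as stronger inhibition. Most other retested compounds had strongly negative values. Size under these conditions: about 69,000 compounds, about 10 of them at 50% or above in at least one test.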
Toxoplasma: 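Assay of Toxoplasma gondii numbers, read through their beta-galactosidase reporter with a colour substrate. Tested at 10 µM. Higher reads as fewer parasites (inferred from which compounds were picked for retests). Of about 67,000 compounds tested this way, about 260 (0.38%) reached 50% or more in at least one test.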
TcHisRS: 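Enzyme assay of histidyl-tRNA synthetase; the read-out is not stated. Target: Histidine-tRNA ligase, Trypanosoma cruzi CL Brener (UniProt Q4DA54). Concentration: 30 µM. Direction is inferred from retests: higher values go with stronger inhibition. About 69,000 compounds were tested under these conditions; 0.045% (about 31) showed 50% or more at least once.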
Pks13 thioesterase: 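Enzyme assay of the thioesterase domain of polyketide synthase 13; the read-out is not stated. Target: Polyketide synthase Pks13, Mycobacterium tuberculosis (UniProt I6X8D2). Compounds at 30 µM. Higher reads as stronger inhibition (inferred from which compounds were picked for retests). Of about 67,000 compounds tested this way, about 300 (0.46%) reached 50% or more in at least one test.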
PfKRS1: 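Lysine-tRNA ligase, Plasmodium falciparum 3D7 (UniProt Q8IDJ8). Enzyme assay of the cytosolic lysyl-tRNA synthetase in 384-well plates, read by luminescence. Tested at 30 µM. Higher reads as stronger inhibition, judged from the few compounds that gave an IC50. Of about 69,000 compounds tested this way, about 49 (0.071%) reached 50% or more in at least one test.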

{"structure": "CCN(CC)Cc1cn2c(n1)CN(C(=O)c1cnccn1)CC2", "ClpP1P2": 4.115, "TcHisRS": 1.657, "Pks13 thioesterase": -21.66, "PfKRS1": 0.6636}
{"structure": "Cc1ccc(C(=O)N(C)Cc2cscn2)c(=O)[nH]1", "ClpP1P2": -1.466, "Toxoplasma": 1.86, "TcHisRS": 0, "Pks13 thioesterase": -13.94, "PfKRS1": 4.098}
{"structure": "Cc1cc(Nc2nc(C)cs2)nc(C2CCCCN2CCO)n1", "stereo": "stereo unspecified", "ClpP1P2": 4.106, "Toxoplasma": 34.4, "TcHisRS": -0.5405, "Pks13 thioesterase": -9.774, "PfKRS1": -0.6889}
{"structure": "Cc1noc(C)c1CN1CCc2ncnc(-c3ccncc3)c2CC1.O=C(O)C(F)(F)F.O=C(O)C(F)(F)F", "Toxoplasma": -27.97}
{"structure": "Cl.Cl.O=C(NCc1cncc2c1CCN(Cc1ccoc1)C2)C1CC1", "Toxoplasma": 3.396}
{"structure": "CCCSCC(=O)N1C[C@H]2CC[C@@H]1CN(Cc1cccnc1)C2", "ClpP1P2": 3.328, "TcHisRS": 0.5236, "Pks13 thioesterase": 10.52, "PfKRS1": -3.87}
{"structure": "COc1cc(N2CCC3(CCCN(Cc4ccccn4)C3)C2)ncn1.O=C(O)C(F)(F)F", "stereo": "stereo unspecified", "Toxoplasma": -7.711}
{"structure": "Cn1cnnc1SCC(=O)NC1CC(=O)N(CCc2cccc(Cl)c2)C1", "stereo": "stereo unspecified", "ClpP1P2": -3.222, "Toxoplasma": 16.72, "TcHisRS": 3.093, "Pks13 thioesterase": -16.77, "PfKRS1": -1.075}
{"structure": "O=C(c1cncc(Br)c1)N1CCCc2c(F)cc(F)cc21", "ClpP1P2": 4.83, "Toxoplasma": -16.88, "TcHisRS": 3.704, "Pks13 thioesterase": 18.56, "PfKRS1": 5.545}
{"structure": "Cc1nn(-c2ccc(C(=O)O)cc2)c2c1C(C(F)(F)F)SCC(=O)N2", "stereo": "stereo unspecified", "ClpP1P2": -20.59, "Toxoplasma": -6.518, "TcHisRS": 2.083, "Pks13 thioesterase": -15.83, "PfKRS1": 2.131}
{"structure": "O=C(NCCC1CCCCO1)c1coc(COc2ccc(F)cc2)n1", "stereo": "stereo unspecified", "ClpP1P2": -9.705, "Toxoplasma": 3.586, "TcHisRS": 3.175, "Pks13 thioesterase": -12.91, "PfKRS1": 5.175}
{"structure": "CC1CCC(NS(=O)(=O)CC(=O)NCC2CCC2)CC1", "stereo": "stereo unspecified", "ClpP1P2": 5.83, "Toxoplasma": -8.05, "TcHisRS": 9.901, "Pks13 thioesterase": 4.002, "PfKRS1": -4.527}
{"structure": "CC1CCN(C(CNC(=O)Cn2cccn2)c2cccs2)CC1", "stereo": "stereo unspecified", "ClpP1P2": -9.523, "TcHisRS": 14.94, "Pks13 thioesterase": -20.53, "PfKRS1": 0.294}
{"structure": "Cc1ccc(-c2ccc(C3CNCCO3)nc2)cc1", "stereo": "stereo unspecified", "ClpP1P2": 8.746, "TcHisRS": 12.09, "Pks13 thioesterase": -1.04, "PfKRS1": 5.241}
{"structure": "Cc1ccc(NC2CCCN(C3Cc4ccccc4C3)C2)nn1", "stereo": "stereo unspecified", "ClpP1P2": -37.93, "Toxoplasma": -33.92, "TcHisRS": 6.763, "Pks13 thioesterase": -5.44, "PfKRS1": 0.843}
{"structure": "O=C(O)C(F)(F)F.[H][C@@]12CCCO[C@]1([H])[C@H](NC(=O)CC1CC1)CN(Cc1cnn(C)c1)C2", "Toxoplasma": -4.338}
{"structure": "CN1CCC(CNC(=O)CCSc2ccc3c(c2)OCCO3)C1", "stereo": "stereo unspecified", "ClpP1P2": -20.88, "Toxoplasma": 0.1479, "TcHisRS": 11.4, "Pks13 thioesterase": -25.59, "PfKRS1": 6.434}
{"structure": "CC(C)(C)n1cc(C(=O)N2CCCN(Cc3cccs3)CC2)cn1", "ClpP1P2": -3.971, "Toxoplasma": -24.14, "TcHisRS": 2.662, "Pks13 thioesterase": -8.182, "PfKRS1": -1.152}
{"structure": "Cc1nc(-c2nnc[nH]2)sc1C(=O)N1CCCC1c1cccs1", "stereo": "stereo unspecified", "ClpP1P2": -1.38, "Toxoplasma": -12.23, "TcHisRS": 3.191, "Pks13 thioesterase": -13.32, "PfKRS1": 1.474}
{"structure": "CC(=O)N1CCC2(CCCN(Cc3ccc(Cl)c(C(F)(F)F)c3)C2)C1", "stereo": "stereo unspecified", "ClpP1P2": -4.341, "Toxoplasma": -4.785, "TcHisRS": 4.918, "Pks13 thioesterase": 6.319, "PfKRS1": 1.544}
{"structure": "NC(=O)N1CCc2cc(C(=O)O)c(-c3ccsc3)nc2CC1", "ClpP1P2": 1.248, "TcHisRS": 5.063, "Pks13 thioesterase": -2.479, "PfKRS1": 10.59}
{"structure": "CS(=O)(=O)N1CCOCC2(CN(Cc3ccccn3)CCO2)C1.O=C(O)C(F)(F)F.O=C(O)C(F)(F)F", "stereo": "stereo unspecified", "Toxoplasma": -3.941}

For reference, 3 entries once more:

With Cc1ccc(C(=O)N(C)Cc2cscn2)c(=O)[nH]1 the screen gave ClpP1P2: -1.466%; Toxoplasma: 1.86%; TcHisRS: 0%; Pks13 thioesterase: -13.94%; PfKRS1: 4.098%.
With Cc1cc(Nc2nc(C)cs2)nc(C2CCCCN2CCO)n1 (stereo unspecified) the screen gave ClpP1P2: 4.106%; Toxoplasma: 34.4%; TcHisRS: -0.5405%; Pks13 thioesterase: -9.774%; PfKRS1: -0.6889%.
With Cl.Cl.O=C(NCc1cncc2c1CCN(Cc1ccoc1)C2)C1CC1 the screen gave Toxoplasma: 3.396%.